Results deposited as PubChem BioAssay AID1259328 (Drosophila RNAi Screening Center, 2017)

Aim: 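Metal-linked candidate genes that shift zinc chloride toxicity in S2R+ cells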
System: Drosophila S2R+ cells
Reagents: long dsRNA against Drosophila genes
Time to read-out: 5 days (4 days knock-down, then 1 day metal)
Challenge: zinc chloride added to 15 mM final for 1 day
Detection: 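Luminescent measure of cellular ATP after 4 days of knock-down then 1 day in 15 mM zinc chloride, given as z-scores averaged across copies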
Reading the numbers: ATP z-score, averaged: higher = more ATP, more viable cells under zinc
Call rule: 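a gene counts as active if its set 1 mean z-score lies outside the range -1.5 to 1.5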
The deposit covers 95 reagents; below is a random part of them. 6 of all reagents (6.3%) were called active. 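Only two distinct z-score sets exist; calls follow set 1, and set 2 holds one inactive gene scoring above 1.5.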 Names joined by + are all predicted targets of the reagent. Not stated in the record: the amount of reagent.

Target gene,amplicon,"ATP z-score, averaged, set 1","ATP z-score, averaged, set 2",activity call
Orct (Organic cation transporter),DRSC16777,-0.436,-0.33,inactive
Orct (Organic cation transporter),DRSC25574,-0.526,-0.402,inactive
SERCA (Sarco/endoplasmic reticulum Ca(2+)-ATPase),DRSC04600,-0.0896,-0.131,inactive
SERCA (Sarco/endoplasmic reticulum Ca(2+)-ATPase),DRSC26195,0.0749,0.572,inactive
Mvl (Malvolio),DRSC16752,-0.308,0.136,inactive
Mvl (Malvolio),DRSC39671,1.2,1.04,inactive
CG7536,DRSC20050,-0.477,-0.304,inactive
CG7536,DRSC39596,-0.317,-0.319,inactive
CG16890 + p38b,DRSC36755,-0.365,-0.0894,inactive
Sod1 (Superoxide dismutase 1),DRSC11286,-0.176,-0.372,inactive
Sod1 (Superoxide dismutase 1),DRSC40766,-0.142,-0.47,inactive

4 entries from above, set out differently:
Target gene | amplicon | ATP z-score, averaged, set 1 | ATP z-score, averaged, set 2 | activity call
Orct (Organic cation transporter) | DRSC16777 | -0.436 | -0.33 | inactive
Orct (Organic cation transporter) | DRSC25574 | -0.526 | -0.402 | inactive
SERCA (Sarco/endoplasmic reticulum Ca(2+)-ATPase) | DRSC04600 | -0.0896 | -0.131 | inactive
SERCA (Sarco/endoplasmic reticulum Ca(2+)-ATPase) | DRSC26195 | 0.0749 | 0.572 | inactive

More entries follow:
Target gene,amplicon,"ATP z-score, averaged, set 1","ATP z-score, averaged, set 2",activity call
Ctr1A (Copper transporter 1A),DRSC40310,0.285,0.322,inactive
Ctr1A (Copper transporter 1A),DRSC40902,0.605,0.594,inactive
alphaCOP (Coat Protein (coatomer) alpha),DRSC08706,2.35,2.19,active
alphaCOP (Coat Protein (coatomer) alpha),DRSC30831,2.7,2.42,active
alphaCOP (Coat Protein (coatomer) alpha),DRSC30832,2.52,2.58,active
stw (straw),DRSC04842,-0.22,-0.125,inactive
stw (straw),DRSC04843,-0.373,-0.413,inactive
CG42674,DRSC29701,-0.219,0.119,inactive
CG42674,DRSC35487,-0.541,-0.332,inactive
Lnk,DRSC16729,-0.528,-0.689,inactive
Lnk,DRSC31005,-0.41,-0.294,inactive
Syx5 (Syntaxin 5),DRSC03432,0.46,0.0739,inactive
Syx5 (Syntaxin 5),DRSC40872,0.512,0.376,inactive
Alk (Anaplastic lymphoma kinase),DRSC23342,-0.382,-0.545,inactive
Alk (Anaplastic lymphoma kinase),DRSC33404,-0.365,-0.496,inactive
Alk (Anaplastic lymphoma kinase),DRSC36973,-0.0307,-0.474,inactive
Zip102B (Zinc/iron regulated transporter-related protein 102B),DRSC17155,0.563,-0.129,inactive
Zip102B (Zinc/iron regulated transporter-related protein 102B),DRSC39247,-0.274,-0.215,inactive
MtnA (Metallothionein A),DRSC21588,-0.388,0.202,inactive
ZnT86D (Zinc transporter 86D),DRSC16091,-0.625,-0.353,inactive
ZnT86D (Zinc transporter 86D),DRSC40064,0.657,0.371,inactive
Vha44 (Vacuolar H[+] ATPase 44kD subunit),DRSC24506,0.596,0.315,inactive
Vha44 (Vacuolar H[+] ATPase 44kD subunit),DRSC32230,-0.345,0.64,inactive
